# Assay results: patent US20170037086A1, “PEPTIDOMIMETIC MACROCYCLES WITH PTH ACTIVITY” (AILERON THERAPEUTICS, INC., priority 2014, published 2017)
# For at least one compound, name, drawing or mass did not settle the structure. Positions of bridges follow the written chain, without caps; N, C: chain ends. Non-standard residues stand in square brackets, D forms with d. Residues, ends and D or L forms follow the SMILES beside them. hArg = N=C(N)NCCCC[C@H](N)C(=O)O; S5 = C=CCCC[C@](C)(N)C(=O)O
# Test system: CGRP, CT, CRF1, CRF2α, GLP-1, GLP-2, Glucagon, secretin, PTH1, Pac1, VPAC1, VPAC2
# Assay: Cellular and nuclear receptor functional assays (cAMP, agonist and antagonist)
# Format: cell-based
# Conditions: 1 μM compound
compound,measurement,value
"CC[C@H](C)[C@H](NC(=O)[C@H](CC(C)C)NC(=O)[C@]1(C)CCCC=CCCC[C@](C)(NC(=O)[C@H](CCCNC(=N)N)NC(=O)[C@H](CCCNC(=N)N)NC(=O)[C@H](CCCNC(=N)N)NC(=O)[C@]2(C)CCCC=CCCC[C@](C)(NC(=O)[C@H](CCCCN)NC(=O)[C@H](C)NC(=O)[C@H](CCCCNC(=N)N)NC(=O)[C@H](CCC(N)=O)NC(=O)[C@H](Cc3c[nH]cn3)NC(=O)[C@H](CC(C)C)NC(=O)[C@@H](N)CC(C)C)C(=O)N[C@@H]([C@@H](C)CC)C(=O)N[C@@H](CCC(N)=O)C(=O)N[C@@H](CC(=O)O)C(=O)N2)C(=O)N[C@@H](Cc2c[nH]c3ccccc23)C(=O)N[C@@H](CC(C)C)C(=O)N[C@@H](Cc2c[nH]cn2)C(=O)N1)C(=O)N[C@@H](C)C(=O)N[C@@H](CCC(=O)O)C(=O)N[C@H](C(=O)N[C@@H](Cc1c[nH]cn1)C(=O)N[C@H](C(=O)N[C@@H](C)C(=O)N[C@@H](CCC(=O)O)C(=O)N[C@@H](Cc1ccc(O)cc1)C(N)=O)[C@@H](C)O)[C@@H](C)CC [SP# 67] (H-LLHQ[hArg]AK[S5]IQD[S5]RRR[S5]WLH[S5]LIAEIHTAEY-NH2; staple 8-12, 16-20)",cAMP production in the absence or presence of compound and the indicated ligands,negligent differences in cAMP production
